Measured values as given in article doi:10.1101/668798.
No constants are given. Whether binding was seen depends on the method and setting. In cells and extracts the contact can be indirect. Some binding calls cover weakened binding; strength is not graded here.

By UniProt entry, the sequences of proteins in these tests, tags left out.
UniProt Q13148: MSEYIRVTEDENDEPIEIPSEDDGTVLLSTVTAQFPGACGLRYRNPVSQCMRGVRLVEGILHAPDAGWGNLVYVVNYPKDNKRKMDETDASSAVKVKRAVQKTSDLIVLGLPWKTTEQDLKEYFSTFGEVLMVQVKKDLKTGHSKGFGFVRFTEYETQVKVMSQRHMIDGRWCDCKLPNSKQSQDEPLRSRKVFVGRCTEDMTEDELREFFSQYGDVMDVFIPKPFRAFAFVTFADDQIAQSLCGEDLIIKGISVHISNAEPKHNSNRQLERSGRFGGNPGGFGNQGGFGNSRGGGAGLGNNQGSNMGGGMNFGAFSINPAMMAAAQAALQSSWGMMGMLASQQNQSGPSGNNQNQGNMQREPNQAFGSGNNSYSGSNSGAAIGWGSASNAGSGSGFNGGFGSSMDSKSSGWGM
UniProt P25694: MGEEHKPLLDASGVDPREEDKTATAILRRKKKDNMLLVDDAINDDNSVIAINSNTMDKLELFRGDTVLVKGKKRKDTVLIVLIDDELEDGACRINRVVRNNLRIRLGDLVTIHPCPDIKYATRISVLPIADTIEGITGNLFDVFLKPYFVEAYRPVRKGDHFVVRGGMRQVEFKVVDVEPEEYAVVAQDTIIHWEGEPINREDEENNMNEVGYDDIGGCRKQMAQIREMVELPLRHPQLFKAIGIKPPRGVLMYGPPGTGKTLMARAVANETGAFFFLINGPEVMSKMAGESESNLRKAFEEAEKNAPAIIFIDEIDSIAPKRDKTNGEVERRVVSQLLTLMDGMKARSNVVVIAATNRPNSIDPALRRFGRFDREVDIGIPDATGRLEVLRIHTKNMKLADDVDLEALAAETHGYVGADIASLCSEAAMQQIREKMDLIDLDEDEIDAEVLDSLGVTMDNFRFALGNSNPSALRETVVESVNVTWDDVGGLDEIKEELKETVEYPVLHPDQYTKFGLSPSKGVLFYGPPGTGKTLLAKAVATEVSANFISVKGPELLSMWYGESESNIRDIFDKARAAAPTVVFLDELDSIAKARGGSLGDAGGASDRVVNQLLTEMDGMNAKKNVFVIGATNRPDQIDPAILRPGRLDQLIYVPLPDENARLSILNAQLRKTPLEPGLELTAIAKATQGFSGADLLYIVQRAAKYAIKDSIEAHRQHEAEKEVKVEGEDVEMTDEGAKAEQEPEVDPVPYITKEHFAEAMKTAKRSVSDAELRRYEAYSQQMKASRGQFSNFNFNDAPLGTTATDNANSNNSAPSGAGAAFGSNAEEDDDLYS
UniProt P04147: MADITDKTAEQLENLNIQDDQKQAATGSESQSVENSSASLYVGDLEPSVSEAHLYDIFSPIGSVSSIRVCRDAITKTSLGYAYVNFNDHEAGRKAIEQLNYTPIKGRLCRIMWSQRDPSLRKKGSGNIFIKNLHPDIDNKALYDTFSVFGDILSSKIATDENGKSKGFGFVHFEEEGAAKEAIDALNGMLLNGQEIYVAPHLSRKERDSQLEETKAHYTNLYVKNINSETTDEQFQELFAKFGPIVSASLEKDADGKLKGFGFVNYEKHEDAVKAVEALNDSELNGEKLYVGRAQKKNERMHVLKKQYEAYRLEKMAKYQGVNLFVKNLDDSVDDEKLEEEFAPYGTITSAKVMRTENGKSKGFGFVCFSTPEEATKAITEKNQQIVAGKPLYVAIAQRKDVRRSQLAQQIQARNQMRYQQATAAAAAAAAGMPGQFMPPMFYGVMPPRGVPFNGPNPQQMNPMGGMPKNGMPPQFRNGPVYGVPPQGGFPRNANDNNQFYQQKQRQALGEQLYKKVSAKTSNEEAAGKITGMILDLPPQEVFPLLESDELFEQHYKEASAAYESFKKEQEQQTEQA

Legend:
TDP-43-YFP = TDP-43-YFP (UniProt Q13148); assay: co-IP
[1] = biological target: Cdc48-TAP (S. cerevisiae) (UniProt P25694); assay: co-IP

Row | binding (TDP-43-YFP) | binding [1] | Substance
1 | binds |  | Cdc48-TAP (from UniProt P25694 1-835)
2 |  | binds | Pab1-GFP (from UniProt P04147 1-577)
3 |  | binds | TDP-43-YFP (from UniProt Q13148 1-414)
